Two molecules from patent publication US20040209808A1 (published 2004) can be followed below.

The chains behind the UniProt entries cited, without tags or fusion partners. Where a name states a change or a piece, a line headed by the entry shows the natural chain unless it says otherwise.
UniProt Q9H1C0: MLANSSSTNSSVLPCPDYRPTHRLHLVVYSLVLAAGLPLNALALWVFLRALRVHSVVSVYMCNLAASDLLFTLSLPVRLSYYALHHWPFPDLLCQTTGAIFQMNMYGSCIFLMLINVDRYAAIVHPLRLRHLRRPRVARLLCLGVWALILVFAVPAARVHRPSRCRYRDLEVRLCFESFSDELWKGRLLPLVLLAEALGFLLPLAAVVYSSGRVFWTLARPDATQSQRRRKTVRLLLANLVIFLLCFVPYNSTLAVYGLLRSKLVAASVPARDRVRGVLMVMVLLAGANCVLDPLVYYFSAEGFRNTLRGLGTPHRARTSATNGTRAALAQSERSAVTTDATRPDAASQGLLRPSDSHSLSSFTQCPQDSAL

Results are given in words; binding and its absence hold for the method and conditions named. Some binding calls cover weakened binding; strength is not graded here.

This assay addresses T1, HGPRBMY3 (human, UniProt Q9H1C0 1-372).
T1 construct: on CHO-NFAT/Galpha15 cells for the reporter assay; also called GPCR19; GPR92; not shown: its amino
Kind of assay: cell-based phage-display panning on CHO-K1 cells transfected with HGPRBMY3; sequencing of eluted phage. The procedure:
On the day of panning, growth medium was discarded and cells were washed with 10 ml PBS by allowing the buffer to flow over the cells. The PBS was removed and 10 ml Tris-EDTA detaching buffer (Gibco Cat. # 13150-016; no trypsin) was added for 2 min. Plates were tapped and/or pipetted up and down to detach cells. This was done quickly to minimize the exposure of the cells to this reagent. Cells were pelleted by centrifugation at 3K, and then washed with 20 ml PBS. Cells were resuspended cells in PBS with 2% milk blocking agent plus protease inhibitor (EDTA-free; Roche Cat. # 1 873 580). For each library, cell suspensions of ˜500 μl were used. Cells were blocked for 30-60 min with gentle rocking at room temperature. The integrin-coated wells were washed 3×in PBST, then blocked with 2% BSA in PBS for 30 min or more. To preadsorb against integrin, input phage was added to the integrin-coated wells, and incubated for 30 min or more.
At this stage, the blocked parental cells were divided into the required number of aliquots (500 μl aliquot/library). The phage supernatants were added from the integrin-preadsorption step. Preadsorption against the parental cells was carried out for 30 min or more with gentle rocking. […]
Standard procedures were used. […] Colonies were grown in liquid medium and analyzed by standard sequencing procedures.

For the molecule KLWELYPTVPAG [SEQ ID NO 39], the binding result was “binds”.

On to KLWELYPTVPAG [SEQ ID NO 44], for which the binding result is recorded as “binds”.
